Article doi:10.1101/2021.02.12.430913
Results are given in words; binding and its absence hold for the method and conditions named. In cells and extracts the contact can be indirect. A yes stands for co-enrichment or nearness to the bait. Other partners may have been found.

Protein sequences, listed by entry. Tags and fused reporters are not part of them. Lines headed by an entry give the natural chain unless they say otherwise; changes in a name come on top.
UniProt Q562E2: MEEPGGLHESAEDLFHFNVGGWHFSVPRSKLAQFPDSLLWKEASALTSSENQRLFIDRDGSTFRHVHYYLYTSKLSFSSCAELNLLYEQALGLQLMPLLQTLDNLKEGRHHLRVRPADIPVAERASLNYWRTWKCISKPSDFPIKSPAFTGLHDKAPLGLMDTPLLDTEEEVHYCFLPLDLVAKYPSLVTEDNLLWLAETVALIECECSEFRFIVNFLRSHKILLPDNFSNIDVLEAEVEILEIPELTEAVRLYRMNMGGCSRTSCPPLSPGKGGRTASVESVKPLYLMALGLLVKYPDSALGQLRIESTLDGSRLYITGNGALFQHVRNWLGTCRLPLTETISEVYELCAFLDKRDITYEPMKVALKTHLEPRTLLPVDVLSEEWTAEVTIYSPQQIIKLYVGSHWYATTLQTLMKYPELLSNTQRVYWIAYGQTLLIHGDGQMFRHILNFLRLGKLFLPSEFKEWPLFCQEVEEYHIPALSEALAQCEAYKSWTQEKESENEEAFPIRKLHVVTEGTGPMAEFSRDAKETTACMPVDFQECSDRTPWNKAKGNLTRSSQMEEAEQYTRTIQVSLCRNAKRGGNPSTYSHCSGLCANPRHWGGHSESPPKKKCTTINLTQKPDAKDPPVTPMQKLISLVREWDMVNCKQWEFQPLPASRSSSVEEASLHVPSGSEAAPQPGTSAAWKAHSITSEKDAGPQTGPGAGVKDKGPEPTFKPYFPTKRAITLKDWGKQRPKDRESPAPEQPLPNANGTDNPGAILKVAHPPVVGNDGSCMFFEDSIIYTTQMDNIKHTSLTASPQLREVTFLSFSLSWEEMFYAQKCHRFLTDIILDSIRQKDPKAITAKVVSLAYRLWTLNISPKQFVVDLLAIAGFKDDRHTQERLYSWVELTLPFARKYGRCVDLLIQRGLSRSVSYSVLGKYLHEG
UniProt Q80TT8: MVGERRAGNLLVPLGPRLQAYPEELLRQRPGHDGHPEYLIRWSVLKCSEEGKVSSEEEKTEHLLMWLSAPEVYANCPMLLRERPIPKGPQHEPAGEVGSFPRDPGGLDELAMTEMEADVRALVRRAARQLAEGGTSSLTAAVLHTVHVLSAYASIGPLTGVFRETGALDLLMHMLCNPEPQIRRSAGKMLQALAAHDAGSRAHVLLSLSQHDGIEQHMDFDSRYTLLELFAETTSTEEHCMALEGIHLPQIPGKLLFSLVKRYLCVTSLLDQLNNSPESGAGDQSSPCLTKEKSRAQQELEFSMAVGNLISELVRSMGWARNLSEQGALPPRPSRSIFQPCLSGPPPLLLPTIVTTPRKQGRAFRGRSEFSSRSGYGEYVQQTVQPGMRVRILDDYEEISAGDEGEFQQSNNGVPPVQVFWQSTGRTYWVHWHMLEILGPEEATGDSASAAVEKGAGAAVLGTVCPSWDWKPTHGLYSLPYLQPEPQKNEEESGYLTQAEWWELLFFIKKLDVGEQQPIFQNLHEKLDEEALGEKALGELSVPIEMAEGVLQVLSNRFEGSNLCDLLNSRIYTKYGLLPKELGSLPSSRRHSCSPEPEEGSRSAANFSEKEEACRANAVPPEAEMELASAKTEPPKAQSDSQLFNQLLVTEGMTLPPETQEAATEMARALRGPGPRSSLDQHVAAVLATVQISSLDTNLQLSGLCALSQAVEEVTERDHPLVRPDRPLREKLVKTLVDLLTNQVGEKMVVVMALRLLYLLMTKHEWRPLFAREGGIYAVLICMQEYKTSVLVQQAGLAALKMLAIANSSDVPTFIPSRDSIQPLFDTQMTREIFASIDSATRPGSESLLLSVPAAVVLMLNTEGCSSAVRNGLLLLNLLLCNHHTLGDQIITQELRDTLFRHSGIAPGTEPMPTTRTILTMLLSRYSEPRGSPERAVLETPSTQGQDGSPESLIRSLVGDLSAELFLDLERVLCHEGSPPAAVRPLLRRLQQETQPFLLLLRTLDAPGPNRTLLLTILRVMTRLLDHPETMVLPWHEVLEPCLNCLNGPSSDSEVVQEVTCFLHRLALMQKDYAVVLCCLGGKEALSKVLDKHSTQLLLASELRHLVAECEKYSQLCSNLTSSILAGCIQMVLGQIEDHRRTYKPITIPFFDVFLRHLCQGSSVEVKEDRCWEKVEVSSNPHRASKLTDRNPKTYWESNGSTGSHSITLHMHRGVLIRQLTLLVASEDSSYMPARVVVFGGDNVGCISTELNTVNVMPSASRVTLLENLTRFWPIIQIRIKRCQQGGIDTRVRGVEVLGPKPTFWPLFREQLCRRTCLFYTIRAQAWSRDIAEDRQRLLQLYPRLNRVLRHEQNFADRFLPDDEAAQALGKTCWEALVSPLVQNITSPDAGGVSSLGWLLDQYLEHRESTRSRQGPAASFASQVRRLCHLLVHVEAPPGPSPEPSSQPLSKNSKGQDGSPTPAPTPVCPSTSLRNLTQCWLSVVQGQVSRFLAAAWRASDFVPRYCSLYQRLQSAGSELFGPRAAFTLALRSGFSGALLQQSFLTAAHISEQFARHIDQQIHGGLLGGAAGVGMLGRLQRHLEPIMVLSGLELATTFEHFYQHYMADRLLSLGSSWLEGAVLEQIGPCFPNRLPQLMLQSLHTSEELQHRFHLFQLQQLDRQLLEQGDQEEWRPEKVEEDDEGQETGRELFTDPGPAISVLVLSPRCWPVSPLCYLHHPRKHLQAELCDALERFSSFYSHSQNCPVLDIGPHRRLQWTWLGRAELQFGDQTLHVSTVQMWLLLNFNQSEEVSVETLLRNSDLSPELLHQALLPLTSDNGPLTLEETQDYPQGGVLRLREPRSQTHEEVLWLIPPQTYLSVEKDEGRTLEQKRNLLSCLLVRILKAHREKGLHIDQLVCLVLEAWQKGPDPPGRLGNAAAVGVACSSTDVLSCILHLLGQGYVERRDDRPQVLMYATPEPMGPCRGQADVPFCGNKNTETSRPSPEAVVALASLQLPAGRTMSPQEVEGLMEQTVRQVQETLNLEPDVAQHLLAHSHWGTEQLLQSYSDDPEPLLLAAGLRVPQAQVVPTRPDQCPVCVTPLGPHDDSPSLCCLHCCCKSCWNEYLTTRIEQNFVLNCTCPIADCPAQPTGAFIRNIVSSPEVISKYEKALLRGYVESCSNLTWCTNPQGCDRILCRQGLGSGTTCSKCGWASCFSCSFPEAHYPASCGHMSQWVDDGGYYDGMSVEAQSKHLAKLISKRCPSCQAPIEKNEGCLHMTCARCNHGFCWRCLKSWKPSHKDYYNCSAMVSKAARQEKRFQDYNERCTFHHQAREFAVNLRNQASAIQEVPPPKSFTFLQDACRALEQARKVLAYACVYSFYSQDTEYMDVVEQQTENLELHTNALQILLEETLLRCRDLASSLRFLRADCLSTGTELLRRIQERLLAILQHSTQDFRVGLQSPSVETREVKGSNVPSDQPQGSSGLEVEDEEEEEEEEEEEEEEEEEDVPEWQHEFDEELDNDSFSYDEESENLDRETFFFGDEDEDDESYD
UniProt O09106: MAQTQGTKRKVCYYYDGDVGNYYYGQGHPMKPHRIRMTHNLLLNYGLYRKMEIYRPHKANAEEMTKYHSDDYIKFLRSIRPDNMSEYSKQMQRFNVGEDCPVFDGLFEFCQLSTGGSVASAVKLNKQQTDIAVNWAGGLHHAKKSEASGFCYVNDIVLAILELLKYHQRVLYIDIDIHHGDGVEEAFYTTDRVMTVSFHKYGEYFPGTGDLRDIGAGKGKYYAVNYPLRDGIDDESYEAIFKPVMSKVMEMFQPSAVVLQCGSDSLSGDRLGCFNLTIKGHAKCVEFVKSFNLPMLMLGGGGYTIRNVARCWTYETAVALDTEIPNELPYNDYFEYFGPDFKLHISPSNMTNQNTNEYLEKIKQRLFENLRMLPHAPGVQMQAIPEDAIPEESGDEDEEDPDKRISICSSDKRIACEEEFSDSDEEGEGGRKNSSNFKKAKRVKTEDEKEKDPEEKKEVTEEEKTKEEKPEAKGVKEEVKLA

Target: potassium channel tetramerization domain containing 19 (KCTD19) (mouse (endogenous in testis)) (UniProt Q562E2)
Experiment: affinity purification with mass spectrometry

Molecule	binding
CUL9 (from UniProt Q80TT8 1-2530)	binds
histone deacetylase 1 (HDAC1) (from UniProt O09106 1-482)	binds

The remaining lines, values ahead:

binding	Molecule
binds	DNTTIP1 (protein, UniProt Q99LB0 1-328) MGATGDTEQPRGPGGAERGGLELGDAGAAGQPVLTNPWNIMIKHRQVQRRGRRSQMTTSFTDPAISMDLLRAVLQPSINEEIQGVFNKYMKFFQKAALNVRDNVGEEVDAEQLIQEACRSCLEQAKLLFSDGEKVIPRLAHELPGIKRGRQAEEESHRGSPIPKKRKGRPPGHVLSNDRAAAGMVWKQKSCEPIRREGPKWDPARLNESTTFVLGSRANKALGMGGTRGRIYIKHPHLFKYAADPQDKHWLAEQHHMRATGGKMAYLLIEEDIRDLAASDDYRGCLDLKLEELKSFVLPSWMVEKMRKYMETLRTENEHRAAEAPPQT
binds	zinc finger protein 541 (ZFP541) (protein, UniProt Q0GGX2-1 1-1363) MEPYSLGEEGALPSEGHLPSFSESQVLNCSDTLNRDLGPSTRDLLYAGLSGLDLDPSLSTSDMPSEVLEDNLDTLSLYSGKDSDSVKLLEEYADSESQTSLQDLGLGALKVPKEADEGGRATGSTRKGKRQHSSPQNPLLDCSLCGKVFSSASSLSKHYLTHSQERKHVCKVCSKAFKRQDHLTGHMLTHQKTKPFVCIEQGCSKSYCDYRSLRRHYEVQHGVCILKETPPEEEAYGDPTHNHDVANQPPPSGLRSLGPPEARSPGSVLPNRDLLRCIVSSIVHQKIPSPGPAVGPSDTEARSSACACPTSLGSSSCTPASTPVALGTLGSEIPEETHPPRKEAATEVFTPVQSRAAENGVPDPPESELESESPRLQRPSSLEGWPEGSSLPACLPLFRGHSVPSGSQPSSHNFQWLRNLPGCPKNKGSNVFMVHKPPAVASREGSEGGGSGPSSTPTSVEPSPSLGTTQEELLPFPPALLKAPGEASSEVRQAAGEDETWAPKKCKPDCESFPWQSPTELGLQDAQNPGGLPSDATPLFRQLFMKSQESLVSHEQMQVLQMIAKSQRIFSHTQVATASAQRPGPEGKQSTLKPLQGPWPPQTLPPAPTVDSFQIGPGHSEPEGSPVRRRKTMPAVSRETSPGGPRRDTKGGPKVASAPPSLTGPGLLPSRNPDSSSLAKGTLDLGDIIPNAGSRQSQLGGDEPAGTQLVGKQGQGENGLASGAMRGEKGPACPRGGGYRLFSGHPRAQRFSGFRKEKVKMDVCCAASPSQVAMASFSSAGPLADPPRDMKSKLTIFNRIQGGNIYRLPHPVKEESLAGGCHQPNGGPTDWMESKSTFVCKNCSQMFYTEKGLSSHMCFHSDQWPSPRGKQEQQVKGQMVASVKRKAGREEGAVEDMKRHYDCSSSEPQDVTILSMLVSSGSCGVTPVVLSSLLQGQEKDGEERDSKESCQYRKRKKRPQPKALFAPPAPSALGEPGPGGCHQSCLHSPVFLVDHLLKGLFQCSPYTPPPMLSPIREGSGLYFNTLCSTSRAGPHLISPVLDQVDSSFGICVVKDDTKISIEPHINVGSRFQAEIPELQERLLARVDENVASLVWKPWGDVMTNPETQDRVMELCNVACSSVMPGGGTNLELALHCLHDAQGSVQVALETLLLRGPQKPRTHPLADYRYTGSDIWTPMEKRLFKKAFCAHKKDFYLIHKMIQTKSVAQCVEYYYIWKKMVKFDCGRAPGLEKRGRRELDEVERTEDKVTCSPRERPTHRPTPELKIKTKSYRRESILHSSPSAAPKRTPEPPGSVESQGVFPCRECERVFDKIKSRNAHMKRHRLQEHVEPVRVKWPVKPYPLKEEEEEEEEELGADMGPLQW
